# The entries are a selection whose mix differs from that of the whole data set. For some of these results: At the low end of the ranking the order means little.
# Chains of the proteins cited; added tags and fusions are not shown. Lines headed by an entry give the natural chain unless they say otherwise; changes in a name come on top.
# UniProt Q01892: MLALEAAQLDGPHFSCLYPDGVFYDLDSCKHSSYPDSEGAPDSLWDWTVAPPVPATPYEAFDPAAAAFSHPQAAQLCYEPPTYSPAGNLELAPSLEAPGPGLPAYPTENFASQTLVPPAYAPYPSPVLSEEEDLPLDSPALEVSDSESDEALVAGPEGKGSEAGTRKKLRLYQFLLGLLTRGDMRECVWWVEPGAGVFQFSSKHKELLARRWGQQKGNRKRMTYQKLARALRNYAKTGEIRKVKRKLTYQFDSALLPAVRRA
# UniProt Q99607: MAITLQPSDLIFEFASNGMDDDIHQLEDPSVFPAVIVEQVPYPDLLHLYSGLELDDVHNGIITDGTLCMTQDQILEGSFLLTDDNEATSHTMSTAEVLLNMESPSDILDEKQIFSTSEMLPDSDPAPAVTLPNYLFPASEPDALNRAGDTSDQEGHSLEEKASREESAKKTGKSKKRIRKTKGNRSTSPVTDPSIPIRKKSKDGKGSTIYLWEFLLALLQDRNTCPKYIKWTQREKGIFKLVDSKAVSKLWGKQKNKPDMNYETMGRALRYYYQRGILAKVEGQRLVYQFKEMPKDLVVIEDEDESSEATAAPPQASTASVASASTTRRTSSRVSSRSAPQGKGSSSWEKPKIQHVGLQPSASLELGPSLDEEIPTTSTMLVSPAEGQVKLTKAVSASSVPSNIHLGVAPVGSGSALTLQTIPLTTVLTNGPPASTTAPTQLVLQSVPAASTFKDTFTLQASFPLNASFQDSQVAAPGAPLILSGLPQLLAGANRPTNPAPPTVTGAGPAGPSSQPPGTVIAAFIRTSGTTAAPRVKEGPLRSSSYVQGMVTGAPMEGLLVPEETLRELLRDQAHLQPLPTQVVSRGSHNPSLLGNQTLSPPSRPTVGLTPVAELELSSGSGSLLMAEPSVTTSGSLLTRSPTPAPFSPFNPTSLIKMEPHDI
# Assays:
# Assay in all cases: DAPPL (digital affinity profiling via proximity ligation, sequencing)
# Conditions in all cases: 10 mM Tris-HCl pH 7.5, 50 mM NaCl, 1 mM DTT, 4% glycerol, room temperature, 30 min; GST-TFs on glutathione beads, 16-mer random dsDNA library, 0.1% …; high values mean tight binding; double strand, one strand shown; scale: fold enrichment (6-mer frequency, TF over GST control)
# FLI1 = biological target: T1, FLI1 (UniProt Q01543)
# T1 sequence: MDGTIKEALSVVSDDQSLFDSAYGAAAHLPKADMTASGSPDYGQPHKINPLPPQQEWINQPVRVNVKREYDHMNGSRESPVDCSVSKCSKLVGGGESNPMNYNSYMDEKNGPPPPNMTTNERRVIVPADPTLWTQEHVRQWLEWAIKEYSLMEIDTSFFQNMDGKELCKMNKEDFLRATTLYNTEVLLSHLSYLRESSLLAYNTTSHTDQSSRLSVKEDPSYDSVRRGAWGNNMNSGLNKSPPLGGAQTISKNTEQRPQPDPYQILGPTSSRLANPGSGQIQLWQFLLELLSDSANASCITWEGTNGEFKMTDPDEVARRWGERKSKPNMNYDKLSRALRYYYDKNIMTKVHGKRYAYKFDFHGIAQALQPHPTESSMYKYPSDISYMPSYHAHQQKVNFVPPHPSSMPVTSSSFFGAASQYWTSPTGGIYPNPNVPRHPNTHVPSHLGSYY
# EHF = biological target: T2, EHF (UniProt Q9NZC4)
# T2 sequence: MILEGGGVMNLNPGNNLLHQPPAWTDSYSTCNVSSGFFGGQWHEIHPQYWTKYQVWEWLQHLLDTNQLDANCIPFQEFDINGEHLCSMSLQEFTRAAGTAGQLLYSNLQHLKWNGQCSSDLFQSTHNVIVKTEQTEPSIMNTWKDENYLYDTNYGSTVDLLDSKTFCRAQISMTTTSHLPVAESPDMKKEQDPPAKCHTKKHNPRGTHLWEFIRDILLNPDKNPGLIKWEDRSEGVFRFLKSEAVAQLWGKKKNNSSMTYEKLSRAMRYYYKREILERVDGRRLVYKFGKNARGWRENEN
# SPIB = SPIB (UniProt Q01892)
# ETV3L = biological target: T3, ETV3L (UniProt Q6ZN32)
# T3 sequence: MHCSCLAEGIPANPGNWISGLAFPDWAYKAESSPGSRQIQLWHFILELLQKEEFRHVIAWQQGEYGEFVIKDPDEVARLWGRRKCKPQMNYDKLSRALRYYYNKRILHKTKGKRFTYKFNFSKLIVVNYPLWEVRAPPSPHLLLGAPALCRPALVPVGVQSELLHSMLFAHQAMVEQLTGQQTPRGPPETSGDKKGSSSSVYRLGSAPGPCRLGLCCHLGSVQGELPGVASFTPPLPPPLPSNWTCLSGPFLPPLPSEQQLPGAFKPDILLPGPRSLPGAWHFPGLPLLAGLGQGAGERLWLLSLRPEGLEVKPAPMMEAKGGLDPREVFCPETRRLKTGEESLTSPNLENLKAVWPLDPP
# ELF4 = ELF4 (UniProt Q99607)
# ETV2 = biological target: T4, ETV2 (UniProt O00321)
# T4 sequence: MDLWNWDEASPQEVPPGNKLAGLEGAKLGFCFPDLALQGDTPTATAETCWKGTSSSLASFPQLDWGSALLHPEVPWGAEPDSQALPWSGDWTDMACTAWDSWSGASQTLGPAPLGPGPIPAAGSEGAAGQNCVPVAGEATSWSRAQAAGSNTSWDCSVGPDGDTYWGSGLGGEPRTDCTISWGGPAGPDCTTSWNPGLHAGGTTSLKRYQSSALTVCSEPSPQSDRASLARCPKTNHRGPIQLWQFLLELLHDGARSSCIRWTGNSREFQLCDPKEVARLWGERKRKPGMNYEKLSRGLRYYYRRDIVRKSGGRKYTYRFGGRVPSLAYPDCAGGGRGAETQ
sequence,measurement,setting,value
TAGCTT,binding signal,FLI1,1.18
same,binding signal,EHF,1.21
TCTTAT,binding signal,FLI1,1.41
same,binding signal,EHF,1.16
AGTATT,binding signal,FLI1,1.12
same,binding signal,EHF,1.15
GGAACT,binding signal,FLI1,1.83
same,binding signal,EHF,1.8
TGTTTT,binding signal,FLI1,1.36
same,binding signal,EHF,1.35
TTGTAT,binding signal,FLI1,1.52
same,binding signal,EHF,1.37
AGCTTA,binding signal,FLI1,1.06
same,binding signal,EHF,1.1
GCTACA,binding signal,FLI1,1.16
same,binding signal,SPIB,1.24
same,binding signal,ETV3L,1.29
AGCACT,binding signal,FLI1,1.38
same,binding signal,EHF,1.36
TTCGGC,binding signal,FLI1,1.03
same,binding signal,EHF,0.978
TGACTA,binding signal,FLI1,1.14
same,binding signal,EHF,1.11
TTCTAC,binding signal,FLI1,1.39
same,binding signal,EHF,1.49
ACCTTG,binding signal,FLI1,1.27
same,binding signal,EHF,1.3
CGACAT,binding signal,FLI1,1.37
same,binding signal,EHF,1.26
CTGGCT,binding signal,FLI1,1.33
same,binding signal,EHF,1.26
CATTCA,binding signal,FLI1,1.17
same,binding signal,EHF,1.05
AATCTC,binding signal,FLI1,1.26
same,binding signal,EHF,1.27
ATATCA,binding signal,FLI1,1.23
same,binding signal,EHF,1.15
AGCCTT,binding signal,FLI1,1.12
same,binding signal,EHF,1.15
ATCCTA,binding signal,FLI1,1.54
same,binding signal,EHF,1.3
TTTAGT,binding signal,FLI1,1.13
same,binding signal,EHF,0.975
GCCCCG,binding signal,FLI1,0.959
same,binding signal,SPIB,1.16
same,binding signal,ETV3L,1.03
CCCTGT,binding signal,FLI1,1.18
same,binding signal,EHF,1.09
TTCCAT,binding signal,FLI1,1.38
same,binding signal,EHF,1.28
GTAAAT,binding signal,FLI1,1.02
same,binding signal,EHF,1.15
TGTACG,binding signal,FLI1,1.18
same,binding signal,EHF,1.12
TCCAAC,binding signal,FLI1,1.22
same,binding signal,EHF,1.23
TTGTTT,binding signal,FLI1,1.46
same,binding signal,SPIB,1.52
same,binding signal,ETV3L,1.46
TCTGGC,binding signal,FLI1,1.36
same,binding signal,EHF,1.22
CTCAAG,binding signal,FLI1,1.29
same,binding signal,EHF,1.21
TAATAC,binding signal,FLI1,1.11
same,binding signal,EHF,1.13
TCCCAG,binding signal,FLI1,1.05
same,binding signal,EHF,1.1
GTATAC,binding signal,FLI1,1.28
same,binding signal,EHF,1.22
GATCCC,binding signal,FLI1,1.16
same,binding signal,EHF,1.17
ATTCCA,binding signal,FLI1,1.17
same,binding signal,EHF,1.13
AATTTC,binding signal,FLI1,1.65
same,binding signal,EHF,1.77
ATTAAG,binding signal,FLI1,1.04
same,binding signal,EHF,1.04
GGCCTT,binding signal,FLI1,1.17
same,binding signal,EHF,1.13
TCCTGG,binding signal,FLI1,1.66
same,binding signal,EHF,1.66
TCGCCC,binding signal,FLI1,1.34
same,binding signal,SPIB,1.25
TAAATC,binding signal,FLI1,1.15
same,binding signal,EHF,1.17
AAGGGC,binding signal,FLI1,1.06
same,binding signal,EHF,1.01
same,binding signal,SPIB,0.912
ATGAAC,binding signal,FLI1,1.31
same,binding signal,SPIB,1.27
CACAGC,binding signal,FLI1,0.989
same,binding signal,EHF,1.02
same,binding signal,SPIB,1.05
TAGGGC,binding signal,FLI1,0.868
same,binding signal,SPIB,0.982
TCCGCT,binding signal,FLI1,2.39
same,binding signal,EHF,2.33
same,binding signal,SPIB,2.37
TGTCTG,binding signal,FLI1,1
same,binding signal,EHF,0.989
same,binding signal,SPIB,1.16
CATGAC,binding signal,FLI1,1.23
same,binding signal,SPIB,1.16
GCAATC,binding signal,FLI1,0.972
same,binding signal,EHF,0.968
GTTTGA,binding signal,FLI1,1.29
same,binding signal,EHF,1.06
same,binding signal,SPIB,1.16
TTCCGC,binding signal,FLI1,3.03
same,binding signal,SPIB,3.15
CACTGT,binding signal,FLI1,1.12
same,binding signal,SPIB,1.22
GGATAT,binding signal,FLI1,1.61
same,binding signal,EHF,1.55
CCACGA,binding signal,FLI1,1.18
same,binding signal,SPIB,1.06
AATGTA,binding signal,FLI1,1.19
same,binding signal,EHF,1.22
GCCTTA,binding signal,FLI1,1.15
same,binding signal,EHF,1.11
same,binding signal,SPIB,1.27
TGCGAC,binding signal,FLI1,1.2
same,binding signal,SPIB,1.27
GCACGC,binding signal,FLI1,1.03
same,binding signal,EHF,1.15
same,binding signal,SPIB,1.19
GTATCC,binding signal,FLI1,1.88
same,binding signal,EHF,1.92
GCTTAC,binding signal,FLI1,1.19
same,binding signal,EHF,1.16
TCCTTC,binding signal,FLI1,2.2
same,binding signal,SPIB,2.16
ACCTTA,binding signal,FLI1,1.34
same,binding signal,SPIB,1.21
CTCCCC,binding signal,FLI1,1.44
same,binding signal,SPIB,1.38
AAGCGG,binding signal,FLI1,1.13
same,binding signal,SPIB,1.03
ACATGT,binding signal,FLI1,1.23
same,binding signal,SPIB,1.15
GGAAAA,binding signal,FLI1,1.16
same,binding signal,EHF,1.38
ATTCCT,binding signal,FLI1,1.46
same,binding signal,EHF,1.34
same,binding signal,SPIB,1.43
AAAGTA,binding signal,FLI1,1.14
same,binding signal,SPIB,1.18
CTGAAG,binding signal,FLI1,1.02
same,binding signal,SPIB,1.04
TCTGAA,binding signal,FLI1,1.11
same,binding signal,SPIB,1.26
AGCACA,binding signal,FLI1,0.984
same,binding signal,EHF,1.04
same,binding signal,SPIB,0.996
GTCCCC,binding signal,FLI1,1.14
same,binding signal,EHF,1.28
GCTGGC,binding signal,FLI1,1.01
same,binding signal,EHF,0.978
same,binding signal,SPIB,0.975
CTTGTA,binding signal,FLI1,1.5
same,binding signal,EHF,1.42
same,binding signal,SPIB,1.44
TACCTA,binding signal,FLI1,1.32
same,binding signal,EHF,1.22
TATCAA,binding signal,FLI1,1.1
same,binding signal,EHF,0.996
same,binding signal,SPIB,0.988
CCTTTT,binding signal,ELF4,1.64
CCCGGC,binding signal,ELF4,1.19
TCTATT,binding signal,ELF4,1.27
TTTCTG,binding signal,FLI1,1.4
same,binding signal,SPIB,1.3
CTGGTC,binding signal,FLI1,1.11
same,binding signal,SPIB,1.35
TATACG,binding signal,FLI1,1.32
same,binding signal,SPIB,1.35
ATCACA,binding signal,ELF4,1.1
GTTTTG,binding signal,ELF4,1.18
TTCCCG,binding signal,ELF4,1.73
ACAAAC,binding signal,ELF4,1.12
TACTAT,binding signal,FLI1,1.5
same,binding signal,SPIB,1.42
ATCCTC,binding signal,FLI1,1.48
same,binding signal,SPIB,1.41
TGCCTA,binding signal,ELF4,1.09
CCCAAC,binding signal,ELF4,1.22
CAAGAT,binding signal,FLI1,1.04
same,binding signal,SPIB,1.01
TTATGC,binding signal,ELF4,1.31
ACGATG,binding signal,FLI1,1.24
same,binding signal,SPIB,1.18
CACGAT,binding signal,FLI1,1.4
same,binding signal,SPIB,1.32
CCCGAA,binding signal,FLI1,1.44
same,binding signal,SPIB,1.27
AATGCG,binding signal,FLI1,1.24
same,binding signal,SPIB,1.31
TGGCCC,binding signal,ELF4,1.14
ACGCTA,binding signal,FLI1,1.14
same,binding signal,SPIB,1.07
TCCCAT,binding signal,FLI1,1.36
same,binding signal,SPIB,1.48
CCGCCG,binding signal,ELF4,1.29
CGCCTA,binding signal,ELF4,1.12
TCTATG,binding signal,FLI1,1.12
same,binding signal,SPIB,1.12
TACAAC,binding signal,FLI1,1.16
same,binding signal,SPIB,1.18
ACCATC,binding signal,ELF4,1.12
ACGTAA,binding signal,FLI1,1.07
same,binding signal,SPIB,0.944
CCATCT,binding signal,ELF4,1.25
CACCGA,binding signal,FLI1,1.01
same,binding signal,SPIB,0.998
CTTCCC,binding signal,ELF4,1.95
TTGTGT,binding signal,FLI1,1.25
same,binding signal,SPIB,1.25
TCTCCA,binding signal,FLI1,1.52
same,binding signal,SPIB,1.44
GAACAA,binding signal,ELF4,1.2
GTGACC,binding signal,FLI1,1.29
same,binding signal,SPIB,1.24
ACCCGG,binding signal,ELF4,1.7
CATCAC,binding signal,ELF4,1.12
TATATT,binding signal,ELF4,1.32
CTGGAA,binding signal,ELF4,1.23
CCTTGC,binding signal,SPIB,1.24
same,binding signal,ELF4,1.27
CTCAGT,binding signal,ETV2,1.2
TTTTCC,binding signal,ETV2,1.88
ACTCGT,binding signal,SPIB,1.26
same,binding signal,ELF4,1.3

# Some of the entries above, set out differently:
sequence	measurement	setting	value
TCCTGG	binding signal	EHF	1.66
TCGCCC	binding signal	FLI1	1.34
same	binding signal	SPIB	1.25
TAAATC	binding signal	FLI1	1.15
same	binding signal	EHF	1.17

# Given bar-delimited: entries from further up.
sequence | measurement | setting | value
CACCGA | binding signal | FLI1 | 1.01
same | binding signal | SPIB | 0.998
